Inconclusive means that the source gave no clear call. Such entries were picked first, then a sample of the others. Where the call is inconclusive, the potency comes from a doubtful curve fit. Active and inactive are the calls of the source. The call rests on the fitted dose curve; in most records, active means well fitted inhibition curve with a large enough effect; inconclusive means small, poorly fitted or top-dose-only effect; inactive means no such curve, though single readings can be large or run the other way.
assay: Acumen qHTS Assay for Inhibitors of the mTORC1 Signaling Pathway in WT MEF Cells: Hit Validation; settings: Acumen imaging; series mostly up to 37.3 µM; further: nearly all actives have a fitted effect of over 60% in size
How it was run: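 Read-out is immunofluorescent phospho-rpS6 (Ser235/236) normalised to PI-stained cell number, reported as % active cells using a 7.5 nM rapamycin threshold. Cells: WT or Tsc2-/-, p53-/- MEFs, compound-exposed 24 h at 37C; PI count also tracks viability.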
Potency means the concentration at half of the fitted maximal effect.

Potency, active:
CCN(CC)CCn1c(=N)n(CC(O)COc2ccccc2C)c2ccccc21 (configuration not stated) 11.7 µM

Potency, inactive:
CCc1ccc2ncc(S(=O)(=O)c3ccc(Cl)cc3)c(N3CCN(CC)CC3)c2c1
COc1cc(Br)ccc1C1C(C(=O)Nc2ccc(C)cc2C)=C(C)Nc2nnnn21 (configuration not stated)
O=C(CS(=O)(=O)c1cccc2nsnc12)NCc1ccc(Cl)cc1
CCN(C(=O)C(NS(=O)(=O)c1ccc(Br)s1)c1ccccc1)c1ccc(C)c(C)c1 (configuration not stated)
COc1cccc(-c2cc(C(=O)Nc3cnn(Cc4ccc(Cl)cc4Cl)c3)no2)c1

Potency, inconclusive:
CCOCc1cc(CN2CCN(c3cccc(Cl)c3)CC2)c(O)c2ncccc12 4.65 µM [inhibitor, full curve]
CCNS(=O)(=O)c1ccc(NC(=O)CSc2nc(-c3ccco3)cc(C(F)(F)F)n2)cc1 16.5 µM [inhibitor, partial curve, poor fit]
CCCN(c1ccccc1CC)S(=O)(=O)c1ccc2c(c1)CC(C)N2C(=O)C1CC1 (configuration not stated) 26.1 µM [inhibitor, single point]
COc1ccccc1N1CCN(C(=O)c2cnc(N3CCCCC3)c3ccccc23)CC1 1.65 µM [inhibitor, full curve]
O=c1c(-c2cc(-c3ccc(F)cc3)nc3c2COc2ccc(Cl)cc2-3)coc2ccc(F)cc12 3.69 µM [inhibitor, full curve]
CCC1=Nc2cc(C(=O)NC3CCC(C)CC3)ccc2Sc2ccc(C)cc21 (configuration not stated) 0.927 µM [inhibitor, full curve]
CCOc1ccc(C2C(C(=O)Nc3ccc(Cl)cc3)=C(C)Nc3nc(C(F)(F)F)nn32)cc1 (configuration not stated) 16.5 µM [inhibitor, single point]
CC1=Nc2cc(C(=O)NC3CCCCC3)ccc2Sc2ccc(Cl)cc21 1.31 µM [inhibitor, full curve]
COc1ccc(-c2nnc(SCC(=O)NCc3ccccc3)nc2-c2ccc(OC)c(OC)c2)cc1OC 2.61 µM [inhibitor, full curve, poor fit]
COc1ccccc1CCNC(=O)C1CCN(c2nnc(-n3cccc3CNc3ccc(C)cc3)s2)CC1 3.29 µM [inhibitor, single point]
CCOC(=O)N1CCN(Cc2nc3cc(NC(=O)CC(C)C)ccc3n2C(C)C)CC1 0.0656 µM [inhibitor, full curve, poor fit]

Sorted by molecular weight (falling): 3 of the compounds above
Potency, inconclusive:
COc1ccccc1CCNC(=O)C1CCN(c2nnc(-n3cccc3CNc3ccc(C)cc3)s2)CC1 3.29 µM [inhibitor, single point]
CCNS(=O)(=O)c1ccc(NC(=O)CSc2nc(-c3ccco3)cc(C(F)(F)F)n2)cc1 16.5 µM [inhibitor, partial curve, poor fit]
O=c1c(-c2cc(-c3ccc(F)cc3)nc3c2COc2ccc(Cl)cc2-3)coc2ccc(F)cc12 3.69 µM [inhibitor, full curve]

Reference: PubChem BioAssay AID651789 (National Center for Advancing Translational Sciences (NCATS), 2012)
